This note sets out measurements from publication PMC8811898, “Structural Insights into Methylated DNA Recognition by the Methyl-CpG Binding Domain of MBD6 from Arabidopsis thaliana”.

The target of this test is MBD domain of AtMBD6 (residues 78-140) (Arabidopsis thaliana) (UniProt Q9LTJ1). In words: NMR dilution series (1H-15N HSQC backbone amide chemical shifts); two-fold serial dilutions of 13C,15N-labeled protein from 200 to 3.1 uM; titration buffer 20 mM sodium phosphate pH 6.5, 150 mM sodium chloride; 20 °C; both purified.

No constants are given. Whether binding was seen depends on the method and setting.

B1: MBD domain of AtMBD6 (residues 78-140) (domain or fragment, UniProt Q9LTJ1 78-140)
chain: GPLGSDNWLPPGWRVEDKIRTSGATAGSVDKYYYEPNTGRKFRSRTEVLYYLEHGTSKRGTKKAENTY
modifications: 13C, 15N-labeled
Take B1: the binding entry is given as “no binding (tested: 200 μM)”.
